In patent publication US5516642 (dated 1996):

Assay: general procedure: Fmoc solid-phase peptide synthesis; para-alkoxybenzyl ester linkage
Settings: for final HPLC purity: 215 nm

| Substance | final HPLC purity (late stage modification step) | step yield (late stage modification step, from Example 1) | step yield (purification step) [%] | final HPLC purity (whole synthesis) | crude yield (whole synthesis, of theory) | crude mass (whole synthesis, scale 0.102 mmol) [mg] |
| --- | --- | --- | --- | --- | --- | --- |
| Glycyl-L-asparaginyl-L-α-glutamyl-L-glutaminyl-L-seryl-L-phenylalanyl-L-arginyl-L-valyl-L-α-aspartyl-L-leucyl-L-arginyl-L-threonyl-L-leucyl-L-leucyl-arginyl-4-hydroxy-3,5-diiodo-L-phenylalanyl-L-alanine. | greater than 98% | 53%, from Example 1% |  |  |  |  |
| Glycyl-L-asparaginyl-L-α-glutamyl-Lglutaminyl-L-seryl-L-phenylalanyl- L-arginyl-L-valyl-L-α-aspartyl-L-leucyl-L-arginyl-L-thereonyl-L-leucyl-L-leucyl-L-arginyl-L-tyrosyl-L-alanine. |  |  | 43 | greater than 98% | greater than 100% of theory | 385 |
